In US10913933B2, “Bioengineered liver constructs and methods relating thereto” (Wake Forest University Health Sciences, priority 2013, dated 2021):

Test system: bioengineered liver organoids
Experiment: Drug metabolic activity of bioengineered liver organoid discs (mass spectrometry of media)
Conditions: induced with phenobarbital and 3-MC
Protocol: For hepatocyte functional analysis, culture medium was collected after the three week incubation. The media was stored at −80° C. until it was used for analysis. For analyzing albumin synthesis, albumin ELISA assay (Bethyl Laboratories Inc.) was carried out on each samples in triplicates. The albumin concentrations were normalized per mg of DNA. The media was also analyzed in the same fashion for urea secretion using a Quantichrome™ Urea Assay Kit (BioAssay Systems, Inc.). […] After 48 hours, media samples were collected and analyzed by mass spectrometry (FIGS. 3C and 3D), and compared with standards of individual metabolites (FIGS. 3A and 3B).
In a second experiment, the liver organoids were prepared as described above in Example 1, Section A using LPC seeding and maintenance media. Alternatively, the organoids can be prepared using minimal LPC medium or hFLP medium instead. After seeding with hFLPCs, the discs were cultured for 3 weeks, with harvesting of cells at 1 week and 3 weeks for immunohistochemical and molecular analysis. Assays assessing albumin and urea synthesis and IHC analyses were performed as described above. Gene expression analyses were performed by RT-PCR after harvesting the organoids. Drug metabolism activity in the organoids was assessed after 1 week and 3 weeks of culturing. […] After 3, 6, 12, and 24 hours, media samples were collected and analyzed by mass spectrometry.

CN1C(=O)CN=C(c2ccccc2)c2cc(Cl)ccc21 [diazepam]
Phase-1 metabolites found in media (first experiment, organoids cultured 3 weeks, media collected after 48 hours): Temazepam, Nordiazepam
Phase I metabolites formed by liver organoids (second experiment, organoids after 1 week and 3 weeks of culturing, media after 3, 6, 12 and 24 hours): temazepam and nordiazepam
